The values below come from paper PMC2705796.

Sequences of proteins named here, by UniProt entry; tags and fusion partners are left off. A change or cut given only in a name is not applied to a line headed by its entry. Residues count along the entry.
FLAG-NURF301ΔC (amino acids 1–1557) (Q9W0T1, residues 1-1557): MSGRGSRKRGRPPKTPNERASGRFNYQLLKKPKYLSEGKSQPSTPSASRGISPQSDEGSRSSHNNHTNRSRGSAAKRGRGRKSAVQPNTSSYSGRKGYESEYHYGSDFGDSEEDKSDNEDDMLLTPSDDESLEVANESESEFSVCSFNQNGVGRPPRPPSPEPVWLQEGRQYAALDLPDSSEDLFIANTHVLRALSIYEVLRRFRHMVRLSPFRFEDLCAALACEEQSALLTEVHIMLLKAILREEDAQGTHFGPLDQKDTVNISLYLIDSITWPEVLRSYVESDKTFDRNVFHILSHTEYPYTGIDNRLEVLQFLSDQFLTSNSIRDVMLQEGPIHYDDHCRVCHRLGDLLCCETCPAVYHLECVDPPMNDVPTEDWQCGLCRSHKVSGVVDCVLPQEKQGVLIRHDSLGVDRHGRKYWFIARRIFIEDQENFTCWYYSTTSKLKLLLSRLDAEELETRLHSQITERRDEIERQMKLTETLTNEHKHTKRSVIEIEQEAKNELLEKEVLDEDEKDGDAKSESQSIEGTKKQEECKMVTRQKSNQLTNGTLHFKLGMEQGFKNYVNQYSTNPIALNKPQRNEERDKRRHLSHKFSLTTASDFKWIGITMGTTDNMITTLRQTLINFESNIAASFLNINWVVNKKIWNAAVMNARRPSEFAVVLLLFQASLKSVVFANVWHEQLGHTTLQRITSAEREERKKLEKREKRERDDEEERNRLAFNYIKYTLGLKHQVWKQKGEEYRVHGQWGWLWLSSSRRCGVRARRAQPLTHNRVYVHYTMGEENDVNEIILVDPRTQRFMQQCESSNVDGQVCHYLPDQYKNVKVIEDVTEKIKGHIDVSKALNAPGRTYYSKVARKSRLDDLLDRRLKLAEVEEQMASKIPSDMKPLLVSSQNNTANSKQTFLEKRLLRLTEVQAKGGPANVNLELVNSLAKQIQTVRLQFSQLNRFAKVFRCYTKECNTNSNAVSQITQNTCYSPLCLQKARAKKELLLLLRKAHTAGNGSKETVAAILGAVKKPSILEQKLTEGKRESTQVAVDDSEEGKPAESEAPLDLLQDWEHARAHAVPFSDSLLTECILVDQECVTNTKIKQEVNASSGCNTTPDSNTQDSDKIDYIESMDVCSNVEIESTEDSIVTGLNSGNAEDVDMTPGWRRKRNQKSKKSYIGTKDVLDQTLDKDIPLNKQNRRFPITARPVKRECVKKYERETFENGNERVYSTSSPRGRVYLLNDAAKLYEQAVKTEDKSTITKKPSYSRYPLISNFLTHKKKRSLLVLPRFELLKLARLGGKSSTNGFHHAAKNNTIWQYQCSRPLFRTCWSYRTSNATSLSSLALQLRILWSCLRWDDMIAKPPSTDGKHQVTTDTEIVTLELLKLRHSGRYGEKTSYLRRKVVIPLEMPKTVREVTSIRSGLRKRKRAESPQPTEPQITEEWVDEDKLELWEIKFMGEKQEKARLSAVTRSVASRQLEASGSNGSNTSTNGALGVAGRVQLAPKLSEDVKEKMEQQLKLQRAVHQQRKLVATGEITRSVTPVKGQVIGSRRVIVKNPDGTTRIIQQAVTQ
GST-Bromo (NURF301 aa 2525–2669) (Q9W0T1, residues 2525-2669): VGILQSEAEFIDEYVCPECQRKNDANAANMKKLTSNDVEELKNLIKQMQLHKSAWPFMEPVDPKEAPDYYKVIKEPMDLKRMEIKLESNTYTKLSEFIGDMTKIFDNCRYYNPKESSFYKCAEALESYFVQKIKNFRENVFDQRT
UniProt Q24572: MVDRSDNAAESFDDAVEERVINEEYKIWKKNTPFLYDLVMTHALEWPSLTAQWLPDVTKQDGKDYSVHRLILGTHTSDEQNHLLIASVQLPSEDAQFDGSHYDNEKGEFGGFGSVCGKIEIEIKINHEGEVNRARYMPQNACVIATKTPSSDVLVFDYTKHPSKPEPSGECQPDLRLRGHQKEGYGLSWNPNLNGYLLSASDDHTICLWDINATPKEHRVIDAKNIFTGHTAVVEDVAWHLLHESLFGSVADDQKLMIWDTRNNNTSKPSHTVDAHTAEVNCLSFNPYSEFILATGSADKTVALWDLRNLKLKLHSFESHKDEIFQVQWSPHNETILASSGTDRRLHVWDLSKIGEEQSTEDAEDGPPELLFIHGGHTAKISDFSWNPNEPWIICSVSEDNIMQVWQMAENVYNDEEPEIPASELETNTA
UniProt Q24368: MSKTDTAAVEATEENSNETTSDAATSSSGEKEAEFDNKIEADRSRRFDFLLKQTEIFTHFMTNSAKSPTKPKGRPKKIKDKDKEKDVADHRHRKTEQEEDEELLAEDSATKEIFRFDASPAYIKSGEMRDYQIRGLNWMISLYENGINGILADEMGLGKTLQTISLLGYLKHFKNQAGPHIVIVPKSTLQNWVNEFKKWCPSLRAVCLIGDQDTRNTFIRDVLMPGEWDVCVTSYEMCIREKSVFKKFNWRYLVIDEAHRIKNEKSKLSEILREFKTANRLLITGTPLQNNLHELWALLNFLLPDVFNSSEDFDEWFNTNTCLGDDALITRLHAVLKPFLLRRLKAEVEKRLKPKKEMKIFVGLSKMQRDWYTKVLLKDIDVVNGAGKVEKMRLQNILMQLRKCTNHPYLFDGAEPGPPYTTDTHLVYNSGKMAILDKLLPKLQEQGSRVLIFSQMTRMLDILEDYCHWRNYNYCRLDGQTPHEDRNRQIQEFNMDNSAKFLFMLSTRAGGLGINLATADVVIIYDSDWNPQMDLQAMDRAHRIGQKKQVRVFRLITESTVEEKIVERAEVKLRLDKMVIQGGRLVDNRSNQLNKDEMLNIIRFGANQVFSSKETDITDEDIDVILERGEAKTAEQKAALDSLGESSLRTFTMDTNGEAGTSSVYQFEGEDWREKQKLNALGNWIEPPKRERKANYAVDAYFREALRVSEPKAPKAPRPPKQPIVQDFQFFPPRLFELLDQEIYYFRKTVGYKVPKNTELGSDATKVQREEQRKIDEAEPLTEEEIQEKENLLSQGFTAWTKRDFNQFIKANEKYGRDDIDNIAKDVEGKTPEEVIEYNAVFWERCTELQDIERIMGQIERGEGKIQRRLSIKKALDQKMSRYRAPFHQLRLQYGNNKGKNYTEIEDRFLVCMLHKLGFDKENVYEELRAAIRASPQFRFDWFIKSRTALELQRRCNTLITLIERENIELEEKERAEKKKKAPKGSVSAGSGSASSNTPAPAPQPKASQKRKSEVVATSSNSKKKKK

These are yes or no findings as the source states them, for the method shown. For some of these results: In cells and extracts the contact can be indirect. Some binding calls cover weakened binding; strength is not graded here.

The target of experiment [1] is FLAG-NURF301ΔC (amino acids 1–1557) (Drosophila) (UniProt Q9W0T1). The experiment in a line: co-IP; SF9 cells co-infected with baculoviruses for FLAG-NURF301ΔC, ISWI, NURF55 and NURF38; FLAG-NURF301ΔC purified on anti-FLAG beads; other subunits detected by Western blotting. (In general: Immunoblotting shows a protein as a band on a membrane.)
Experiment [2] deals with GST-Bromo (NURF301 aa 2525–2669) (Drosophila) (UniProt Q9W0T1). The experiment in a line: pull-down; reciprocal: GST-fusion protein (5 µg) as bait on Glutathione-Sepharose beads, 1 µg biotinylated tail peptide; 50 mM Tris, 150 mM NaCl, 0.1% NP-40, 4°C overnight; peptides detected with Streptavidin-HRP; both purified.

On to MYC-NURF55 (from UniProt Q24572 1-430), for which, in experiment [1], the binding entry is “binds”.

Consider “unmodified H4 (1–21) tail peptide, biotinylated (from UniProt P62805 2-22)”, for which, in experiment [2], the binding entry was “no binding (tested: 1 µg tail peptide with 5 µg protein)”.

For the molecule “HA-ISWI (from UniProt Q24368 1-1027) (enzyme)”, the binding result in experiment [1] is recorded as “binds”.

B1: NURF38 (protein, UniProt O77460 1-338)
chain: MLAKITRSSFYASRAVGRLSGSIPTSPAALASNCRYIQIERKRTKSHEMALYETVEKGAKNSPSYSLYFKNKCGNVISPMHDIPLYANEEKTIYNMVVEVPRWTNAKMEISLKTPMNPIKQDIKKGKLRFVANCFPHKGYIWNYGALPQTWENPDHIEPSTGCKGDNDPIDVIEIGYRVAKRGDVLKVKVLGTIALIDEGETDWKIIAIDVNDPLASKVNDIADVDQYFPGLLRATVEWFKIYKIPDGKPENQFAFNGDAKNADFANTIIAETHKFWQNLVHQSPASGSISTTNITNRNSEHVIPKEEAEKILAEAPDGGQVEEVSDTVDTWHFIHLK
In the case of B1, the binding result in experiment [1] is reported as “binds”.
